Experimental data: PubChem BioAssay AID1487 (National Center for Advancing Translational Sciences (NCATS), 2009)
This is one part of the list. Shown are side measurements of this screen, not its main read-out; they come without a call. Compounds called inactive in the main read-out are mostly missing here. Words in brackets tell the shape of the fitted curve; partial curves, single points and poor fits give uncertain potencies.

Assay: qHTS Assay for Modulators of Lamin A Splicing
Details: HeLa LMNA splicing GFP/RFP minigene ratio, 48 h
Procedure, shortened: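 Read-out is the ratio of GFP to DsRed2 object intensity, acquired by 488 nm laser-scanning cytometry on HeLa lamin A-EGFP minigene reporter cells. Compound incubation 48 hrs at 37 °C in Opti-MEM with 2% FBS; DMSO 0.5% final.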

[1] = measured here: RFP viability control channel
[2] = measured here: GFP splicing reporter channel

| SMILES | AC50 [1] | AC50 [2] |
| --- | --- | --- |
| CCc1cccc(C)c1NC(=O)c1cc(S(=O)(=O)N(Cc2ccc(C(=O)OC)cc2)Cc2ccc(OC)c(OC)c2)ccc1F | 5.62 µM [rising, full curve, poor fit] | – |
| O=C(NN1CCCCC1)c1cccc(COc2ccc(Cl)cc2)c1 | – | 35.5 µM [rising, single point] |
| Fc1cccc2sc(Nc3nc4c(F)cccc4s3)nc12 | 7.94 µM [rising, partial curve] | – |
| Cc1ccc(-n2nnnc2SCC(=O)Nc2ccccc2-c2ccccc2)cc1C | 31.6 µM [rising, single point] | – |
| O=C1Oc2ccccc2C(=O)/C1=C\N1CCN(c2ccccc2)CC1 | 0.0251 µM [rising, full curve, poor fit] | 0.0282 µM [rising, full curve, poor fit] |
| CCN(CC)c1nc2ccccc2nc1C(=O)Nc1ccc(C(C)=O)cc1 | 22.4 µM [rising, partial curve, poor fit] | 1.12 µM [rising, partial curve, poor fit] |
| COc1cc(Br)cc(/C=N/c2ncn[nH]2)c1O | – | 35.5 µM [falling, single point] |
| O=C(COC(=O)c1cccc(S(=O)(=O)NCc2ccccc2)c1)c1ccccc1 | 12.6 µM [rising, partial curve] | 4.47 µM [rising, full curve] |
| Cc1nn(Cc2cccc(F)c2)c(C)c1NC(=O)c1ccc(COc2ccccc2Cl)cc1 | 35.5 µM [rising, single point] | – |
| COc1ccccc1NC(=O)CN1CCN(CC(=O)Nc2ccc(Cl)c(C(F)(F)F)c2)CC1 | 22.4 µM [falling, partial curve] | 20 µM [falling, partial curve] |
| CCN(CC)Cc1nc2sc(C)c(C)c2c(=O)[nH]1 | 20 µM [rising, single point] | 15.8 µM [rising, single point] |
| Cc1nn(-c2ccccc2)c2c1C(c1ccc(O)c(O)c1)N1C(=N2)C(Nc2ccccc2)=Nc2ccccc21 (stereo not drawn) | 0.0316 µM [falling, single point] | 7.94 µM [falling, single point] |
| Cc1nnsc1C(=O)N/N=C/c1ccc(OC(F)(F)F)cc1 | – | 2.51 µM [rising, partial curve] |
| COC(=O)c1c(NC(=O)COC(=O)[C@@H](NS(=O)(=O)c2cccc(Cl)c2)C(C)C)sc2c1CCC2 | – | 11.2 µM [rising, partial curve] |
| Clc1ccccc1C1=Nn2c(nnc2-c2ccncc2)SC1 | 11.2 µM [rising, single point] | – |
| O=C(Nc1ccncc1)c1cc(-c2ccccn2)nc2ccc(Br)cc12 | 12.6 µM [falling, partial curve, poor fit] | – |
| Cc1ccc(-c2nc(C)c(CCNC(=O)c3cccs3)s2)cc1 | 22.4 µM [falling, partial curve, poor fit] | – |

| SMILES | AC50 [1] | AC50 [2] |
| --- | --- | --- |
| COC(=O)c1ccc(NC(=O)CCN2CCN(CCC(=O)Nc3ccc(C(=O)OC)cc3)CC2)cc1 | 25.1 µM [rising, single point] | 35.5 µM [rising, single point] |
| O=C(N/N=C/c1ccncc1)c1cccc([N+](=O)[O-])c1 | 1.58 µM [rising, full curve] | – |
| Cc1nc2ccccc2cc1OCc1ccc(Cl)cc1 | 3.55 µM [rising, partial curve] | – |
| CC(C)(C)CC(=O)O/N=C(\N)c1ccncc1 | 5.62 µM [rising, single point] | – |
| Cc1cnc(CNc2ncncc2-c2ccc3c(c2)OCO3)cn1 | 35.5 µM [falling, single point] | 35.5 µM [falling, single point] |
| COc1ccc(CNc2ncnc3ccc(-c4ccc(N(C)C)cc4)cc23)c(OC)c1 | 7.94 µM [falling, partial curve] | 7.08 µM [falling, partial curve] |
| CSc1ccc(OC2CCCCC2NS(=O)(=O)c2ccc(Cl)cc2)cc1 (stereo not drawn) | 31.6 µM [rising, single point] | 31.6 µM [rising, single point] |
| O=C(CSc1nnc2c(n1)[nH]c1ccccc12)Nc1ccc(N2CCOCC2)cc1 | 8.91 µM [falling, partial curve, poor fit] | 0.1 µM [falling, full curve, poor fit] |
| c1ccc2c(c1)COC(CNC1CCCCC1)OC2 | 3.98 µM [falling, full curve, poor fit] | – |
| CCOC(=O)c1cccc(NC(=O)Cn2cc3c(n2)CCC(C)C3)c1 (stereo not drawn) | 15.8 µM [rising, partial curve] | 17.8 µM [rising, single point] |
| CC(=O)Nc1ccc2nc(CN3CCN(Cc4ccc(F)cc4)C(CCO)C3)ccc2c1 (stereo not drawn) | 0.126 µM [falling, full curve, poor fit] | 0.398 µM [falling, full curve, poor fit] |
| CCc1cccc(NC(=O)c2cc3c(=O)n(Cc4ccccc4)ccc3nc2C)c1 | 12.6 µM [rising, single point] | – |
| O=C(c1cc2nc(-c3ccccc3)cc(-c3ccccc3)n2n1)N1CCN(C(=O)c2ccco2)CC1 | 14.1 µM [rising, partial curve] | – |
| CCOc1ccc(-c2c[n+]3c(n2-c2ccccc2)CCCCC3)cc1 | 2 µM [rising, partial curve] | – |
| Cc1noc(C)c1CSCC(=O)Nc1nc2ccc(Oc3ccccc3)cc2s1 | 31.6 µM [rising, single point] | – |
| CCC(=O)N1CCc2cc(CNS(=O)(=O)c3cc(OC)ccc3OC)ccc21 | 0.0224 µM [rising, full curve, poor fit] | 0.0282 µM [rising, full curve, poor fit] |
| O=C(CSc1nnc(Cn2cnc3ccccc32)o1)c1ccccc1 | 22.4 µM [rising, single point] | – |

Some of these compounds in order of formula weight, largest number first:

| SMILES | AC50 [1] | AC50 [2] |
| --- | --- | --- |
| COC(=O)c1ccc(NC(=O)CCN2CCN(CCC(=O)Nc3ccc(C(=O)OC)cc3)CC2)cc1 | 25.1 µM [rising, single point] | 35.5 µM [rising, single point] |
| COc1ccc(CNc2ncnc3ccc(-c4ccc(N(C)C)cc4)cc23)c(OC)c1 | 7.94 µM [falling, partial curve] | 7.08 µM [falling, partial curve] |
| CCc1cccc(NC(=O)c2cc3c(=O)n(Cc4ccccc4)ccc3nc2C)c1 | 12.6 µM [rising, single point] | – |
